In PubChem BioAssay AID2685 (National Center for Advancing Translational Sciences (NCATS), 2010):
The list shows a part of the results. These are further read-outs of the screen, such as a control signal, another cell line or another target. No call is given for them. The list favours compounds with an active or inconclusive main result. Words in brackets tell the shape of the fitted curve; partial curves, single points and poor fits give uncertain potencies.

Assay: qHTS Assay for Lipid Storage Modulators in Drosophila S3 Cells;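 on cell number change: cells counted by Cell Tracker Red CMTPX staining in the red channel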
Conditions: BODIPY lipid droplet fluorescence, 18-24 h; for cell number change: measured here: cell count max response, cells fed with added oleic acid
Method in brief: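 Laser-scanning cytometry quantifies lipid droplet accumulation (500–530 nm total intensity; droplet/cell object ratio) in oleic acid-fed (400 uM added) Drosophila S3 cells treated with a concentration series. 20 uM Triacsin C defined 100% inhibition.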

[1] = measured here: lipid fluorescence (Fed channel) AC50, cells fed with added oleic acid
[2] = measured here: cell number channel AC50, cells fed with added oleic acid

Compound	cell number change [%]	AC50 [1]	AC50 [2]
CC(C)NC(=O)C1c2ccccc2Oc2ccccc21	19.3	29.1 µM [rising, single point]	–
O=C(NCc1ccco1)C(c1cccnc1)N(C(=O)Cn1nnc2ccccc21)c1ccccc1 (stereo not given)	1.15	–	–
CNC(=S)Nc1cc(C(F)(F)F)ccc1Cl	-1	0.00517 µM [rising, full curve, poor fit]	–
COc1ccc2c(c1)C(c1ccc(C)o1)=NNC(c1cccnc1)=N2	-7.75	–	–
COc1cccc(CC(=O)OCC(=O)N(C)CC(=O)Nc2ccccc2Cl)c1	6.16	29.1 µM [rising, single point]	–
CCOc1c(S(=O)(=O)NC2CC(C)(C)NC(C)(C)C2)ccc(Cl)c1Cl	-30.5	8.2 µM [falling, partial curve]	20.6 µM [falling, single point]
CCOC(=O)N/N=C/c1ccc(Oc2ccccc2)cc1	16.9	–	–
CN(CC(=O)Nc1ccc(S(=O)(=O)N2CCCC2)cc1)Cc1ccc(Cl)cc1Cl	–	10.3 µM [falling, partial curve, poor fit]	–
O=C(O)/C(=C\c1cccc(O)c1)c1ccc(S(=O)(=O)N2CCCC2)s1	-1.38	0.517 µM [rising, full curve]	–
Cc1ccc(C(C)C)c(OCc2ccc(C(=O)N/N=C/c3ccc(O)c(O)c3)cc2)c1	-25.4	0.082 µM [falling, full curve, poor fit]	–
Fc1ccc(CNC(=S)Nc2ccc(OC(F)F)cc2)cc1	–	–	3.66 µM [falling, single point]
Cc1cc2cc(CNC(=O)c3ccc(S(=O)(=O)N4CCCCC4)cc3)ccc2n1C	23.5	–	–
Cn1cc(S(=O)(=O)N2CCc3ccccc3C2)c(=O)n(C)c1=O	-21	3.26 µM [falling, single point]	–
Cc1nn(CC(=O)NCc2ccc(OC(C)C)cc2)c(=O)c2cc3occc3n12	–	1.84 µM [falling, partial curve]	–
Cc1ccccc1-c1nc(CS(=O)CC(=O)NCc2ccccn2)c(C)o1 (stereo not given)	27	1.46 µM [falling, partial curve, poor fit]	–
O=C(NCCCN1CCOCC1)c1c(O)c2ccccc2[nH]c1=O	45.6	29.1 µM [rising, single point]	29.1 µM [rising, single point]
Cc1cc2nc(=O)c(/C=C3\C=Nc4ccccc43)c(N)n2o1	63	1.03 µM [rising, full curve]	2.91 µM [rising, partial curve]

Pulled by compound from above (2):
Compound	cell number change [%]	AC50 [1]	AC50 [2]
Cc1cc2cc(CNC(=O)c3ccc(S(=O)(=O)N4CCCCC4)cc3)ccc2n1C	23.5	–	–
Fc1ccc(CNC(=S)Nc2ccc(OC(F)F)cc2)cc1	–	–	3.66 µM [falling, single point]
